Measurements reported in PubChem BioAssay AID1259405 (NCATS, 2018).

Assay: 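Mouse-designed siRNAs used to find CHO productivity engineering targets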 (primary screen)
Cells: Chinese hamster CHO-K1 ovary cells with stable secreted eGFP expression
Reagent: single siRNA against mouse genes, 0.8 pmol siRNA per well (2 µl of 400 nM stock)
Timing: 3 days
Measurement: 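Percent of the per-plate non-targeting control median for intracellular GFP per well by laser scanning cytometry and for cell viability by ATP luminescence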
Scale: GFP, % of control: higher = more GFP per well, higher productivity; viability (ATP), % of control: higher = more viable cells (more ATP)
Rule for the call: 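a knock-down is called active if GFP reaches 120% or more of non-targeting control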
In all, the deposit lists about 50,000 reagents; shown is a random part of them. Of all reagents, about 4,000 (8%) got an active call. 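Mouse siRNA library applied to hamster cells; one well for each siRNA.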 The numbers tell different reagents against one gene apart.

Zfp236 (zinc finger protein 236) #1 gave GFP, % of control 48.6; viability (ATP), % of control 58.2; inactive.
Against Zfp236 (zinc finger protein 236) #2, the entry reads GFP, % of control 84.2; viability (ATP), % of control 82.5; inactive.
Zfp236 (zinc finger protein 236) #3 scored GFP, % of control 69.5; viability (ATP), % of control 64.1; inactive.
Magi3 #1 scored GFP, % of control 93.9; viability (ATP), % of control 90.2; inactive.
Depletion of Magi3 #2 came out at: GFP, % of control 80.1; viability (ATP), % of control 81.8; inactive.
Magi3 #3 scored GFP, % of control 80.8; viability (ATP), % of control 84.5; inactive.
Against Gpr63 (G protein-coupled receptor 63) #1, the values are GFP, % of control 103; viability (ATP), % of control 106; inactive.
After knock-down of Gpr63 (G protein-coupled receptor 63) #2, the screen gave GFP, % of control 75; viability (ATP), % of control 76.6; inactive.
Gpr63 (G protein-coupled receptor 63) #3 gave GFP, % of control 80.4; viability (ATP), % of control 68.1; inactive.
With knock-down of Gaa (glucosidase, alpha, acid) #1 the results were GFP, % of control 103; viability (ATP), % of control 82.9; inactive.
For Gaa (glucosidase, alpha, acid) #2, the values are GFP, % of control 67.7; viability (ATP), % of control 63.7; inactive.
For Gaa (glucosidase, alpha, acid) #3, the entry reads GFP, % of control 84.4; viability (ATP), % of control 89.7; inactive.
Depletion of Tgfbr1 (transforming growth factor, beta receptor I) #1 gave: GFP, % of control 105; viability (ATP), % of control 107; inactive.
After knock-down of Tgfbr1 (transforming growth factor, beta receptor I) #2 the results were GFP, % of control 128; viability (ATP), % of control 83.9; active.
Tgfbr1 (transforming growth factor, beta receptor I) #3 scored GFP, % of control 84.1; viability (ATP), % of control 83.2; inactive.
With knock-down of Il1rap (interleukin 1 receptor accessory protein) #1, the record shows GFP, % of control 136; viability (ATP), % of control 124; active.
Il1rap (interleukin 1 receptor accessory protein) #2 gave GFP, % of control 52.2; viability (ATP), % of control 66.8; inactive.
Il1rap (interleukin 1 receptor accessory protein) #3 showed GFP, % of control 76.4; viability (ATP), % of control 70.2; inactive.
Against Tex15 (testis expressed gene 15 meiosis and synapsis associated) #1 the deposit lists GFP, % of control 102; viability (ATP), % of control 89.1; inactive.
Knock-down of Tex15 (testis expressed gene 15 meiosis and synapsis associated) #2 resulted in: GFP, % of control 73; viability (ATP), % of control 95.3; inactive.
For Tex15 (testis expressed gene 15 meiosis and synapsis associated) #3, the values are GFP, % of control 147; viability (ATP), % of control 127; active.
Acot1 (acyl-CoA thioesterase 1) #1 gave GFP, % of control 102; viability (ATP), % of control 61.4; inactive.
Acot1 (acyl-CoA thioesterase 1) #2 gave GFP, % of control 121; viability (ATP), % of control 71.1; active.
After knock-down of Acot1 (acyl-CoA thioesterase 1) #3, the record shows GFP, % of control 125; viability (ATP), % of control 109; active.
Poli (polymerase (DNA directed), iota) #1 scored GFP, % of control 155; viability (ATP), % of control 147; active.
Poli (polymerase (DNA directed), iota) #2 scored GFP, % of control 53.1; viability (ATP), % of control 49.5; inactive.
After knock-down of Rtca (RNA 3'-terminal phosphate cyclase) #1, the screen gave GFP, % of control 68.5; viability (ATP), % of control 80.9; inactive.
Rtca (RNA 3'-terminal phosphate cyclase) #2 showed GFP, % of control 88.1; viability (ATP), % of control 77; inactive.
Rtca (RNA 3'-terminal phosphate cyclase) #3 gave GFP, % of control 60.1; viability (ATP), % of control 69.1; inactive.
Against Hars1 (histidyl-tRNA synthetase 1) #1, the values are GFP, % of control 105; viability (ATP), % of control 78.4; inactive.
Depletion of Hars1 (histidyl-tRNA synthetase 1) #2 came out at: GFP, % of control 84.2; viability (ATP), % of control 75.7; inactive.
With knock-down of Hars1 (histidyl-tRNA synthetase 1) #3, the screen gave GFP, % of control 137; viability (ATP), % of control 80; active.
Knock-down of Tomm20 (translocase of outer mitochondrial membrane 20) #1 gave: GFP, % of control 80.8; viability (ATP), % of control 60.8; inactive.
Silencing of Tomm20 (translocase of outer mitochondrial membrane 20) #2 gave: GFP, % of control 105; viability (ATP), % of control 68.1; inactive.
Against Tomm20 (translocase of outer mitochondrial membrane 20) #3, the entry reads GFP, % of control 128; viability (ATP), % of control 126; active.
Gpr37l1 (G protein-coupled receptor 37-like 1) #1 gave GFP, % of control 100; viability (ATP), % of control 88.3; inactive.
Gpr37l1 (G protein-coupled receptor 37-like 1) #2 scored GFP, % of control 83.8; viability (ATP), % of control 69.5; inactive.
Gpr37l1 (G protein-coupled receptor 37-like 1) #3 scored GFP, % of control 78.1; viability (ATP), % of control 80; inactive.
Silencing of Or10p22 (olfactory receptor family 10 subfamily P member 22) #1 gave: GFP, % of control 37.3; viability (ATP), % of control 46.7; inactive.
For Or10p22 (olfactory receptor family 10 subfamily P member 22) #2 the deposit lists GFP, % of control 87.8; viability (ATP), % of control 92.6; inactive.
With knock-down of Or10p22 (olfactory receptor family 10 subfamily P member 22) #3, the screen gave GFP, % of control 56.9; viability (ATP), % of control 36.3; inactive.
Lmbr1l (limb region 1 like) #1 scored GFP, % of control 65.4; viability (ATP), % of control 69.2; inactive.
For Lmbr1l (limb region 1 like) #2 the deposit lists GFP, % of control 70.4; viability (ATP), % of control 64.1; inactive.
After knock-down of Lmbr1l (limb region 1 like) #3, the record shows GFP, % of control 75.3; viability (ATP), % of control 68.1; inactive.
Hsd17b12 (hydroxysteroid (17-beta) dehydrogenase 12) #1 gave GFP, % of control 76.1; viability (ATP), % of control 66.8; inactive.
Hsd17b12 (hydroxysteroid (17-beta) dehydrogenase 12) #2 gave GFP, % of control 57.4; viability (ATP), % of control 67.9; inactive.
Silencing of Hsd17b12 (hydroxysteroid (17-beta) dehydrogenase 12) #3 came out at: GFP, % of control 86.2; viability (ATP), % of control 72.3; inactive.
Knock-down of Nol3 (nucleolar protein 3 (apoptosis repressor with CARD domain)) #1 gave: GFP, % of control 111; viability (ATP), % of control 108; inactive.
Against Nol3 (nucleolar protein 3 (apoptosis repressor with CARD domain)) #2, the entry reads GFP, % of control 88.7; viability (ATP), % of control 94.2; inactive.
Knock-down of Nol3 (nucleolar protein 3 (apoptosis repressor with CARD domain)) #3 came out at: GFP, % of control 69.8; viability (ATP), % of control 68.4; inactive.
With knock-down of Arpin (actin-related protein 2/3 complex inhibitor) #1 the results were GFP, % of control 63; viability (ATP), % of control 93.1; inactive.
Depletion of Arpin (actin-related protein 2/3 complex inhibitor) #2 gave: GFP, % of control 170; viability (ATP), % of control 125; active.
Silencing of Arpin (actin-related protein 2/3 complex inhibitor) #3 gave: GFP, % of control 83.1; viability (ATP), % of control 78.2; inactive.

Quoted from above, 5 entries:
Tgfbr1 (transforming growth factor, beta receptor I) #2 — GFP, % of control: 128; viability (ATP), % of control: 83.9; Outcome: active
Tgfbr1 (transforming growth factor, beta receptor I) #3 — GFP, % of control: 84.1; viability (ATP), % of control: 83.2; Outcome: inactive
Il1rap (interleukin 1 receptor accessory protein) #1 — GFP, % of control: 136; viability (ATP), % of control: 124; Outcome: active
Il1rap (interleukin 1 receptor accessory protein) #2 — GFP, % of control: 52.2; viability (ATP), % of control: 66.8; Outcome: inactive
Il1rap (interleukin 1 receptor accessory protein) #3 — GFP, % of control: 76.4; viability (ATP), % of control: 70.2; Outcome: inactive
